Some entries share one result that the patent states for a list of compounds. Some ranges recur; such a range may be that of the whole group of compounds. Residues, ends and D or L forms follow the SMILES beside them.
How the values were obtained:
DmGPCR4 = test: [35S]GTPγS binding assay, membranes of transfected CHO cells; format: biochemical, Drosophila melanogaster; conditions: Diplotera punctata allatostatins, one range (ca.) for all, read-out: EC50, GTPγS responses
Method: The transfected cells were washed once with ice-cold Dulbecco's phosphate buffered saline (PBS), 5 ml per 10 cm plate, and scraped into 5 ml of the same buffer. Cell suspensions from multiple plates were combined and centrifuged at 500×g for 10 min at 4° C. The cell pellet was reconstituted in ice-cold TEE (25 mM TRIS, 5 mM EGTA, 5 mM EDTA). Convenient aliquots were snap-frozen in liquid nitrogen and stored at −70° C. After thawing, the cells were homogenized and centrifuged at 4° C., 500×g for 5 minutes to pellet nuclei and unbroken cells. The supernatant was centrifuged at 47,000×g for 30 minutes at 4° C. The membrane pellet was washed once with TEE, resuspended in 20 mM HEPES, pH 7.4, 100 mM NaCl, 10 mM MgCl2, 1 mM EDTA (assay buffer), aliquoted and frozen in liquid nitrogen. Membrane aliquots were stored at −70° C. Membrane protein concentration was determined using the BCA Protein Assay Reagent from Pierce (Rockford, Ill.) and BSA as standard.
Initially, reaction mixtures were prepared in 96-well polypropylene plates (Nunc). In each well, peptide aqueous solution (20 μl, 10×), or water controls (20 μl), 18.2 μM GDP in assay buffer (0.11 ml, 10 μM final), and membranes suspended in assay buffer (50 μl, 10 μg membrane protein) were mixed and placed on ice. […] Then the membranes were washed 3 times with 0.25 ml ice-cold wash buffer/well (10 mM HEPES, 10 mM MgCl2, pH 7.4) and vacuum filtered. […] Each treatment was carried out in triplicates.
Ligand-induced stimulation of [^35S]GTPγS binding was expressed as fold increase over the basal activity with no ligand added. Each treatment was run either in triplicate, or, on occasion, in duplicate, and the binding (cpm) was calculated as means +/− standard deviations. Dose-response curves for the receptor/ligand systems were analyzed using a non-linear least square SAS model, y=Bmax X/(Kd+X). Other dose-response curves were analyzed using Prism (GraphPad Software, Inc. San Diego, Calif.) and the following equation y=Bottom+(Top−Bottom)/(1+10^LogEC50-X).
(§1) Originally, we have chosen the GTPγS assay as a functional assay because agonist-driven stimulation of GTPγS reflects early events in the DmGPCR activation cascade, regardless of further activation pathways of various down-stream signaling events. This appears especially useful for the assessment of possible activation of orphan DmGPCRs with unknown functions and unknown signaling pathways. […] Since the GTPγS assay is known to poorly recognize GPCRs coupled to the Gq class of G-proteins, a Ca^+2 mobilization assay based on a FLIPR readout was used as well to evaluate Gq-coupled orphan GPCRs in CHO cells transiently transfected with DNA encoding Drosophila GPCRs.

DmGPCR7 = test: FLIPR analysis of intracellular calcium release; format: cell-based, Drosophila melanogaster; conditions: DmGPCR7 in CHO-10001A cells
Method: Changes in intracellular calcium levels are another recognized indicator of G protein-coupled receptor activity, and such assays can be employed to screen for modulators of DmGPCR activity. For example, CHO cells stably transfected with a DmGPCR expression vector are plated at a density of 4×10^4 cells/well in Packard black-walled, 96-well plates specially designed to discriminate fluorescence signals emanating from the various wells on the plate. The cells are incubated for 60 minutes at 37° C. in modified Dulbecco's PBS (D-PBS) containing 36 mg/L pyruvate and 1 g/L glucose and one of four calcium indicator dyes (Fluo-3™ AM, Fluo-4™ AM, Calcium Green™-1 AM, or Oregon Green™ 488 BAPTA-1 AM), each at a concentration of 4 μM. Plates are washed once with modified D-PBS and incubated for 10 minutes at 37° C. to remove residual dye from the cellular membrane. In addition, a series of washes with modified D-PBS is performed immediately prior to activation of the calcium response.
A calcium response is initiated by the addition of one or more candidate receptor agonist compounds, calcium ionophore A23187 (10 μM; positive control), or ATP (4 μM; positive control). Fluorescence is measured by Molecular Device's FLIPR with an argon laser (excitation at 488 nm). […] Basal fluorescence of cells was measured for 20 seconds prior to addition of candidate agonist, ATP, or A23187, and the basal fluorescence level was subtracted from the response signal. The calcium signal is measured for approximately 200 seconds, taking readings every two seconds. […]
as §1, with “events.” for “events. This appears especially useful for the assessment of possible activation of orphan DmGPCRs with unknown functions and unknown signaling pathways.”

CC(C)C[C@H](NC(=O)CNC(=O)[C@H](Cc1ccccc1)NC(=O)CNC(=O)[C@H](Cc1ccc(O)cc1)NC(=O)[C@H](CC(C)C)NC(=O)[C@H](CCCNC(=N)N)NC(=O)[C@H](CCC(N)=O)NC(=O)[C@H](C)NC(=O)CNC(=O)[C@H](CO)NC(=O)[C@@H]1CCCN1C(=O)[C@H](C)N)C(N)=O [APSGAQRLYGFGL-NH2] (H-APSGAQRLYGFGL-NH2; N-terminus assumed)
EC50 (DmGPCR4): 20 to 280 nM

CC(C)C[C@H](NC(=O)CNC(=O)[C@H](Cc1ccccc1)NC(=O)[C@H](CO)NC(=O)[C@H](Cc1ccc(O)cc1)NC(=O)[C@H](CC(C)C)NC(=O)[C@H](CCCNC(=N)N)NC(=O)[C@@H](N)CC(=O)O)C(N)=O [DRLYSFGL-NH2] (H-DRLYSFGL-NH2; N-terminus assumed)
EC50 (DmGPCR4): 20 to 280 nM

CC(C)C[C@H](NC(=O)CNC(=O)[C@H](Cc1ccccc1)NC(=O)[C@H](C)NC(=O)[C@H](Cc1ccc(O)cc1)NC(=O)[C@H](CC(C)C)NC(=O)[C@H](CCCNC(=N)N)NC(=O)CNC(=O)[C@H](CC(=O)O)NC(=O)CN)C(N)=O [GDGRLYAFGL-NH2] (H-GDGRLYAFGL-NH2; N-terminus assumed)
EC50 (DmGPCR4): 20 to 280 nM

CC(C)C[C@H](NC(=O)CNC(=O)[C@H](Cc1ccccc1)NC(=O)[C@H](CO)NC(=O)[C@H](Cc1ccc(O)cc1)NC(=O)[C@H](CC(C)C)NC(=O)[C@H](CO)NC(=O)CNC(=O)CN)C(N)=O [GGSLYSFGL-NH2] (H-GGSLYSFGL-NH2; N-terminus assumed)
EC50 (DmGPCR4): 20 to 280 nM

C[C@H](NC(=O)[C@@H]1CCCN1C(=O)[C@@H](N)CC(=O)O)C(=O)N[C@@H](Cc1ccccc1)C(=O)N[C@@H](CC(N)=O)C(=O)N[C@@H](CO)C(=O)N[C@@H](Cc1c[nH]c2ccccc12)C(=O)NCC(N)=O [LK-I, DPAFNSWGa] (H-DPAFNSWG-NH2; N-terminus assumed)
EC50 (DmGPCR7): 15 to 30 nM

NCC(=O)N[C@@H](CO)C(=O)NCC(=O)N[C@@H](Cc1ccccc1)C(=O)N[C@@H](CO)C(=O)N[C@@H](CO)C(=O)N[C@@H](Cc1c[nH]c2ccccc12)C(=O)NCC(N)=O [LK-V, GSGFSSWGa] (H-GSGFSSWG-NH2; N-terminus assumed)
EC50 (DmGPCR7): 15 to 30 nM

NC(=O)[C@H](CO)NC(=O)[C@H](Cc1c[nH]c2ccccc12)NC(=O)[C@H](CO)NC(=O)[C@H](Cc1c[nH]cn1)NC(=O)[C@H](Cc1ccccc1)NC(=O)[C@H](CO)NC(=O)[C@@H]1CCCN1 [Lymnaea LK, PSFHSWSa] (H-PSFHSWS-NH2; N-terminus assumed)
EC50 (DmGPCR7): 15 to 30 nM
